Results: PMC8103087
No constants are given. Whether binding was seen depends on the method and setting. In cells and extracts the contact can be indirect. Some binding calls cover weakened binding; strength is not graded here. For part of these data: Sequences can lack the tags named with a protein.

Amino acid sequences for entries named in this document (tags omitted).
UniProt Q13547: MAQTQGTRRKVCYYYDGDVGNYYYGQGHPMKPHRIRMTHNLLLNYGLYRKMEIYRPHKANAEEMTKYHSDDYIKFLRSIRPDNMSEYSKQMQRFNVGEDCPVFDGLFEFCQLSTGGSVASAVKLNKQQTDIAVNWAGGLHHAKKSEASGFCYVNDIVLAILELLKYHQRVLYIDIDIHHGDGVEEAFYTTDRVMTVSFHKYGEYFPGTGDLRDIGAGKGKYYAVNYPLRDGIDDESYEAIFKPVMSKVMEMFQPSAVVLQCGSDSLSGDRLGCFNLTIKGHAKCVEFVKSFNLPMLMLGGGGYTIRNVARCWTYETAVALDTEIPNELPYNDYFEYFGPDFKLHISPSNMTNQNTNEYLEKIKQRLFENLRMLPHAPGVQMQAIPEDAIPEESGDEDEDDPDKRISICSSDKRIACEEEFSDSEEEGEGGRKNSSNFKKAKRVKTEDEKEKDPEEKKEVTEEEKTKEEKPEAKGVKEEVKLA
UniProt O15379: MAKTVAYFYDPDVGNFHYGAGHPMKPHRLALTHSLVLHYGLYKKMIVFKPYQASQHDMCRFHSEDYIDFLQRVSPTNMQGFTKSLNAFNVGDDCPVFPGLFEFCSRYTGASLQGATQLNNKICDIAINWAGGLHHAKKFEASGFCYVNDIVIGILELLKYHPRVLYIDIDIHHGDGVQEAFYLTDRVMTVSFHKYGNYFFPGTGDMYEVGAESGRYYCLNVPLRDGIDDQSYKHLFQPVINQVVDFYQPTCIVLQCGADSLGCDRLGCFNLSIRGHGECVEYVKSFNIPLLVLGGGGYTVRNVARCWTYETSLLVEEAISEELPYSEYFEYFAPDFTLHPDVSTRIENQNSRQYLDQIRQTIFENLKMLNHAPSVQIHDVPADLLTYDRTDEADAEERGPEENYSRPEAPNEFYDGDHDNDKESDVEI

Tests used:
flag-HDAC1 = flag-HDAC1 (UniProt Q13547); experiment: co-IP; HEK293T cells transfected with vector or flag-HDAC3 / flag-HDAC1 plasmid; lysis in 50 mM Tris-HCl pH 7.4, 0.8% NP40, 10% glycerol, 150 mM NaCl at 4°C; anti-Flag M2 magnetic beads, 60 min, five washes; Western blot for menin
flag-HDAC3 = flag-HDAC3 (UniProt O15379); experiment: as above
flag-JunD = target: T1, flag-JunD (UniProt P17535); experiment: co-IP; HEK293T cells transfected with vector or flag-JunD plasmid, treated with DMSO, MI-503 (30, 100, 300 nM) or MI-463 (30, 100, 300 nM); lysis in 50 mM Tris-HCl pH 7.4, 0.8% NP40, 10% glycerol, 150 mM NaCl at 4°C; anti-Flag M2 magnetic beads; Western blot
T1 sequence: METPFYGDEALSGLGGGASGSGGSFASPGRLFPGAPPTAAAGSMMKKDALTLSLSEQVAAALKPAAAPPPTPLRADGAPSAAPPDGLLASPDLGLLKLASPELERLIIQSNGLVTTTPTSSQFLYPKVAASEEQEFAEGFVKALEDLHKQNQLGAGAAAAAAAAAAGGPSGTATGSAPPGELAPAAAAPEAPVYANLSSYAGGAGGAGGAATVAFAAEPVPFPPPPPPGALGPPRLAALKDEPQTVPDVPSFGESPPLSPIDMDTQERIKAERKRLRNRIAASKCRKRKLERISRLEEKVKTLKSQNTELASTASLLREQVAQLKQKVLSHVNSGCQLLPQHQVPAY

- binding (flag-HDAC1): binds
- binding (flag-HDAC3): binds
- binding (flag-JunD): binds
B1: menin (protein, UniProt O00255 1-610)
chain: MGLKAAQKTLFPLRSIDDVVRLFAAELGREEPDLVLLSLVLGFVEHFLAVNRVIPTNVPELTFQPSPAPDPPGGLTYFPVADLSIIAALYARFTAQIRGAVDLSLYPREGGVSSRELVKKVSDVIWNSLSRSYFKDRAHIQSLFSFITGTKLDSSGVAFAVVGACQALGLRDVHLALSEDHAWVVFGPNGEQTAEVTWHGKGNEDRRGQTVNAGVAERSWLYLKGSYMRCDRKMEVAFMVCAINPSIDLHTDSLELLQLQQKLLWLLYDLGHLERYPMALGNLADLEELEPTPGRPDPLTLYHKGIASAKTYYRDEHIYPYMYLAGYHCRNRNVREALQAWADTATVIQDYNYCREDEEIYKEFFEVANDVIPNLLKEAASLLEAGEERPGEQSQGTQSQGSALQDPECFAHLLRFYDGICKWEEGSPTPVLHVGWATFLVQSLGRFEGQVRQKVRIVSREAEAAEAEEPWGEEAREGRRRGPRRESKPEEPPPPKKPALDKGLGTGQGAVSGPPRKPPGTVAGTARGPEGGSTAQVPAPTASPPPEGPVLTFQSEKMKGMKELLVATKINSSAIKLQLTAQSQVQMKKQKVSTPSDYTLSFLKRQRKGL
